Source: PMC8881602
No constants are given. Whether binding was seen depends on the method and setting. In cells and extracts the contact can be indirect. These calls come from enrichment with a bait or labelling near it, and not all partners need be listed. For some of these results: No binding means not detected with the bait.

Protein sequences, listed by entry. Tags and fused reporters are not part of them. Residues count along the entry.
UniProt Q3UVX5, residues 19-1203: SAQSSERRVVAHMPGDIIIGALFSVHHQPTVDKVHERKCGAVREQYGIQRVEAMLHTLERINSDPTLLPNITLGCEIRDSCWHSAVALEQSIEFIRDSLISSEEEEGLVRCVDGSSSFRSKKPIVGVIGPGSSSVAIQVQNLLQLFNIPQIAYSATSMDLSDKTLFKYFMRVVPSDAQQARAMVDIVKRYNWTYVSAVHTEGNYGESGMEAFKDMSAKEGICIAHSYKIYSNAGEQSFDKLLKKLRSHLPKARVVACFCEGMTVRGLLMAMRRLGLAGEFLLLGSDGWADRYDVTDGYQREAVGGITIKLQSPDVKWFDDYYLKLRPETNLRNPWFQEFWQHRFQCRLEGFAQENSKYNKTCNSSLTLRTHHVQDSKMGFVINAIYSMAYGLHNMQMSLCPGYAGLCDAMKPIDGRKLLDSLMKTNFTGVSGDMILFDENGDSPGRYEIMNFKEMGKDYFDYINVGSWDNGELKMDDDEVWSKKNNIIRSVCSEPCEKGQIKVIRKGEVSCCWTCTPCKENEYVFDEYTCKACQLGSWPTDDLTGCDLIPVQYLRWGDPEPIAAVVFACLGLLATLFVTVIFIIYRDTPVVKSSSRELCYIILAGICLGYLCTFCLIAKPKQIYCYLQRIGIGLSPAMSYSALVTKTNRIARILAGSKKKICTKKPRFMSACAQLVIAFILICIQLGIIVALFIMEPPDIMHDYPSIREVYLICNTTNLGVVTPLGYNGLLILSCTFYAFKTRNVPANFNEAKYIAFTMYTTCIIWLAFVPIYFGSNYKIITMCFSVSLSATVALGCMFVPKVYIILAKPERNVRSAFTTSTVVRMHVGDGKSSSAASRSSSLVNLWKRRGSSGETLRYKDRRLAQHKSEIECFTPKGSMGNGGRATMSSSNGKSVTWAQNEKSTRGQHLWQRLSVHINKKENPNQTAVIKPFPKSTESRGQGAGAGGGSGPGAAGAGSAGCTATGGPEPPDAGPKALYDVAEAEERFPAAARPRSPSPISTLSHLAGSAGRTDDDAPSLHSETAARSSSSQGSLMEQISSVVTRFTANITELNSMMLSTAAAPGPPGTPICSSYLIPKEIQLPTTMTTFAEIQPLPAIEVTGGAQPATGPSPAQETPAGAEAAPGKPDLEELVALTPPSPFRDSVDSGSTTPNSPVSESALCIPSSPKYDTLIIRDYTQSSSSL

B1: Homer protein homolog 2 (protein, UniProt Q9QWW1 1-354)
chain: MGEQPIFTTRAHVFQIDPSTKKNWVPASKQAVTVSYFYDVTRNSYRIISVDGAKVIINSTITPNMTFTKTSQKFGQWADSRANTVFGLGFSSELQLTKFAEKFQEVREAARLARDKSQEKTETSSNHSQESGCETPSSTQASSVNGTDDEKASHASPADTHLKSENDKLKIALTQSAANVKKWEMELQTLRESNARLTTALQESAASVEQWKRQFSICRDENDRLRSKIEELEEQCSEINREKEKNTQLKRRIEELESEVRDKEMELKDLRKQSEIIPQLMSECEYVSEKLEAAERDNQNLEDKVRSLKTDIEESKYRQRHLKGELKSFLEVLDGKIDDLHDFRRGLSKLGTDN
B2: SH3 and multiple ankyrin repeat domains protein 2 (protein, UniProt Q80Z38 1-1476)
chain: MKSLLNAFTKKEVPFREAPAYSNRRRRPPNTLAAPRVLLRSNSDNNLNAGAPEWAVCSAATSHRSLSPQLLQQTPSKPDGATKSLGSYTPGPRSRSPSLNRLGGTAEDGKRTQPHWHVGSPFTPGANKDSLSTFEYPGPRRKLYSAVPGRLFVAVKPYQPQVDGEIPLHRGDRVKVLSIGEGGFWEGSARGHIGWFPAECVEEVQCKPRDSQAETRADRSKKLFRHYTVGSYDSFDAASDCIIEDKTVVLQKKDNEGFGFVLRGAKADTPIEEFTPTPAFPALQYLESVDEGGVAWQAGLRTGDFLIEVNNENVVKVGHRQVVNMIRQGGNHLILKVVTVTRNLDPDDTARKKAPPPPKRAPTTALTLRSKSMTAELEELGLSLVDKASVRKKKDKPEEIVPASKPSRTAENVAIESRVATIKQRPTSRCFPAASDVNSVYERQGIAVMTPTVPGSPKGPFLGLPRGTMRRQKSIDSRIFLSGITEEERQFLAPPMLKFTRSLSMPDTSEDIPPPPQSVPPSPPPPSPTTYNCPRSPTPRVYGTIKPAFNQNPVVAKVPPATRSDTVATMMREKGMFYRRELDRFSLDSEDVYSRSPAPQAAFRTKRGQMPENPYSEVGKIASKAVYVPAKPARRKGVLVKQSNVEDSPEKTCSIPIPTIIVKEPSTSSSGKSSQGSSMEIDPQATEPGQLRPDDSLTVSSPFAAAIAGAVRDREKRLEARRNSPAFLSTDLGDEDVGLGPPAPRMQASKFPEEGGFGDEDETEQPLLPTPGAAPRELENHFLGGGEAGAQGEAGGPLSSTSKAKGPESGPAAPLKSSSPAGPENYVHPLTGRLLDPSSPLALALSARDRAMQESQQGHKGEAPKADLNKPLYIDTKMRPSVESGFPPVTRQNTRGPLRRQETENKYETDLGKDRRADDKKNMLINIVDTAQQKSAGLLMVHTVDVPMAGPPLEEEEDREDGDTKPDHSPSTVPEGVPKTEGALQISAAPEPAVAPGRTIVAAGSVEEAVILPFRIPPPPLASVDLDEDFLFTEPLPPPLEFANSFDIPDDRAASVPALADLVKQKKNDTSQPPTLNSSQPANSTDSKKPAGISNCLPSSFLPPPESFDAVTDSGIEEVDSRSSSDHHLETTSTISTVSSISTLSSEGGESMDTCTVYADGQAFVVDKPPVPPKPKMKPIVHKSNALYQDTLPEEDTDGFVIPPPAPPPPPGSAQAGVAKVIQPRTSKLWGDVPEVKSPILSGPKANVISELNSILQQMNRGKSVKPGEGLELPVGAKSANLAPRSPEVMSTVSGTRSTTVTFTVRPGTSQPITLQSRPPDYESRTSGPRRAPSPVVSPTELSKEILPTPPPPSATAASPSPTLSDVFSLPSQSPAGDLFGLNPAGRSRSPSPSILQQPISNKPFTTKPVHLWTKPDVADWLESLNLGEHKETFMDNEIDGSHLPNLQKEDLIDLGVTRVGHRMNIERALKQLLDR

Columns and labels:
[1] = target: T1, Homer protein homolog 1 (mouse (endogenous in cortical slices)) (UniProt Q9Z2Y3); assay: affinity purification with mass spectrometry; Homer1 precipitated with antibody AT1F3 and Protein G magnetic beads from 1% NP-40 lysates of acute cortical slices kept in control aCSF; label-free DIA LC-MS/MS; hits are peptides or proteins enriched in WT against Homer1 KO mice (log2FC at least 1); Homer2 and Homer3 stayed enriched after 5 min 50 mM KCl
T1 sequence: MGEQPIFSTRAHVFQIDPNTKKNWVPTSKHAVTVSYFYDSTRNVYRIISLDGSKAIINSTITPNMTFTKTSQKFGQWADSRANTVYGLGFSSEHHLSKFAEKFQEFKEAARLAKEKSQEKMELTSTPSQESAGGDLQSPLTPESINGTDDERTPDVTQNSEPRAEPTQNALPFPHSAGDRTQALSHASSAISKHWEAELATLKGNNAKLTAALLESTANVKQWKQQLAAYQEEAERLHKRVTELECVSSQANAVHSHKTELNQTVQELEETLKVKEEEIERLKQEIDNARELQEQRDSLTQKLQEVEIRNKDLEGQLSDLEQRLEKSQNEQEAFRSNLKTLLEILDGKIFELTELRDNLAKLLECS

[2] = target: T1, Homer protein homolog 1 (mouse (endogenous in cortical slices)); assay: condition: only after 5 min of 50 mM KCl on the slices; affinity purification with mass spectrometry; as a1, but slices depolarised with 50 mM KCl for 5 min at 37 °C before lysis; WT-KCl against KO-KCl (log2FC at least 1, p < 0.01)

| Molecule | binding [1] | binding [2] |
| --- | --- | --- |
| Metabotropic glutamate receptor 5 (from UniProt Q3UVX5 19-1203) | binds | no binding |
| B1 | binds |  |
| B2 | binds |  |
